Measurements reported in article PMC8372318, “Automated affinity selection for rapid discovery of peptide binders” (Chemical Science, 2021).
“Also recorded” adds a separate entry of the source.

System: anti-hemagglutinin (HA) monoclonal antibody 12ca5
Experiment: BLI-assisted capture and release of single control peptide, nLC-MS/MS read-out
Type: binding

YPYDVPDYAK [HA tag]
detection threshold of the indirect capture approach: 1.0 nM | ion enrichment, direct capture: enriched; also recorded: no detectable ion enrichment
